Experimental data: EP1094724B1, “USE OF A PHENOL OXIDISING ENZYME IN THE TREATMENT OF TOBACCO” (priority 1998, dated 2000)
For at least one compound, name, drawing or mass did not settle the structure.

Key:
[1] = molecular target: T1, Trametes villosa laccase (TvL) (Trametes villosa, UniProt Q99044); experiment: Laccase TvL treatment of tobacco extract, HPLC analysis of phenolic compounds (peak area); format: biochemical; conditions: approximately 1.6 µg/ml TvL, surface aeration, pH 5.5 and 55°C
T1 construct: purchased Novo Nordisk A/S
T1 sequence (Q99044 22-520): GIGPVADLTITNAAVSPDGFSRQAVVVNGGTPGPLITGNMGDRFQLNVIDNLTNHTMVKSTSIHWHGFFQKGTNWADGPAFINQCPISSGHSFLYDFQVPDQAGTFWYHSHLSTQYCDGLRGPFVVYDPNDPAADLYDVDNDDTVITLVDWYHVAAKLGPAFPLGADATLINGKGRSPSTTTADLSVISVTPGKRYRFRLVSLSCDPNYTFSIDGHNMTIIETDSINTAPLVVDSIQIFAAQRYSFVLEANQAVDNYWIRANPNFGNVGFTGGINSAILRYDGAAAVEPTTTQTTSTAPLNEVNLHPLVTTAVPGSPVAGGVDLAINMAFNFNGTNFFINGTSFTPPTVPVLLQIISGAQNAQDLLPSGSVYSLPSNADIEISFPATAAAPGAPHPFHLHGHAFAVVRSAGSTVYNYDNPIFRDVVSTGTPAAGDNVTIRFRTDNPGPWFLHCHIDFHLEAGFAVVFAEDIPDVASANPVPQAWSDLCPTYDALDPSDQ
Description: The content of phenolic compounds is analysed by HPLC according to the procedure described below: • Liquid chromatographic system: E.g. Shimadzu SCL-6B System Controller, and two LC-6A Liquid Chromatograph (pumps) or Waters model 600 E • Injector: Shimadzu SIL 6B Autoinjector or Waters 715 Ultra Wisp. UV detector: Shimadzu SPD-6A Photodiode Array UV-VIS detector or Waters Model 481 • Software: CLASS LC10 / CLASS-MXA or Maxima 820 • Column: Supelcosil™ LC-18 25 cm x 4.6 mm (Supelco, #5-8298) or µ Bondapack C198 stainless steel column, 30 cm x 4 mm i.d., 10 µm particle size. • Guard column: none or Guard-Pak from Waters packed with the same material. • Temperature: Ambient • Mobile phase flow: 1.3 ml/min • Injection volume: 20µl • Wavelength: 350 nm • Eluent: Binary gradient (linear) mixture of A: KH2PO4 (28.4 g in 2000 ml de-mineralised water) and B: methanol (please see table 1 and figure 1). […]
For qualitative and semi-quantitative measurements, each of the standards was dissolved in 96% ethanol, and then mixed in a ratio and at a concentration which was within the range in the tobacco extract. For semi-quantification of the phenolic compounds in the tobacco extract, and as a measure of development in concentration of the various compounds contained in the extract, decrease in peak area relative to the peak area before addition of enzyme was used. […]

[2] = molecular target: T2, laccase derived from Trametes villosa, TvL (Trametes villosa, UniProt Q99044); experiment: Effect of laccase on tobacco constituents, UV/Vis spectra before and after treatment (Example 1); format: biochemical; conditions: 9 mM Na-acetate buffer pH 5.0; 4.8% Ethanol; 0.025 mg/ml of tobacco constituent; 0.016 mg/ml laccase; spectra 190-700 nm every 20 seconds for 5 minutes
T2 construct: purchased Novo Nordisk A/S
T2 sequence (Q99044 22-520): T1 sequence (Q99044 22-520)
Description: Tobacco constituents: Nicotine, Chlorogenic acid, Rutin and Scopoletin. Enzyme: Purified laccase derived from Trametes villosa, TvL. Apparatus: HP8452 UV/Vis diode array spectrophotometer, 1 cm quarts cuvette. Buffer: Sodium acetate (Merck)
10 mM acetate buffer was prepared from sodium acetate adjusted to pH 5.0 with sulphuric acid. Stock solution of 0.50 mg/ml in 96% ethanol was prepared of nicotine, chlorogenic acid, rutin, and scopoletin. A stock solution of 0.31 mg enzyme protein/ml of laccase in de-mineralised water was prepared. The HP diode array spectrophotometer was operated as per the manufacturer's instructions. A 1 cm quartz cuvette was used. As a blank was used 950µl buffer mixed with 50µl 96% ethanol. In a 1 cm quart cuvette was mixed 900µl 10 mM acetate buffer and 50µl of the stock solution of the compound in question. A spectrum of the "native" compound was recorded in the range 190-700 nm. 50µl of TvL stock solution was added and carefully mixed, and spectra in the range 190-700 nm were recorded every 20 seconds for 5 minutes.

Compound: C[C@@H]1O[C@@H](OC[C@H]2O[C@@H](Oc3c(-c4ccc(O)c(O)c4)oc4cc(O)cc(O)c4c3=O)[C@H](O)[C@@H](O)[C@@H]2O)[C@H](O)[C@H](O)[C@H]1O [R, rutin]
- reduction in the area of the peaks (HPLC) following enzyme treatment [1]: significant reduction
- spectral changes (peak position and peak relative height) [2]: significant spectral changes
